This is one part of the list.
How the values were obtained:
Assay in all cases: log2 fold change, soluble protein after heating vs DMSO (PISA); higher = thermal stabilisation; K562 lysate, 10 uM; active = over 0.2 and 3.5 SD of the protein, either way, in both replicates (recomputed)
erlotinib = compound: C#Cc1cccc(Nc2ncnc3cc(OCCOC)c(OCCOC)cc23)c1 [erlotinib]
Method in brief: (§1)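 Soluble protein was defined as the supernatant remaining after 21,000xg for 90 min, following pooling of heated aliquots and adjustment to 0.5% NP-40 at 4°C. Before that, crude K562 extract at 1 mg/mL protein in PBS pH 7.4 with 1 mM MgCl2 was treated with 10 μM compound for 30 min and heated for 3 min across 48°C-58°C. Quantification used TMTpro 16plex LC-MS/MS with channel sums equalised, and values are log-two fold changes in thermal stability relative to solvent controls from duplicates.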

Amino acid sequences for entries named in this document (tags omitted). A change or cut given only in a name is not applied to a line headed by its entry.
UniProt Q9Y4B5: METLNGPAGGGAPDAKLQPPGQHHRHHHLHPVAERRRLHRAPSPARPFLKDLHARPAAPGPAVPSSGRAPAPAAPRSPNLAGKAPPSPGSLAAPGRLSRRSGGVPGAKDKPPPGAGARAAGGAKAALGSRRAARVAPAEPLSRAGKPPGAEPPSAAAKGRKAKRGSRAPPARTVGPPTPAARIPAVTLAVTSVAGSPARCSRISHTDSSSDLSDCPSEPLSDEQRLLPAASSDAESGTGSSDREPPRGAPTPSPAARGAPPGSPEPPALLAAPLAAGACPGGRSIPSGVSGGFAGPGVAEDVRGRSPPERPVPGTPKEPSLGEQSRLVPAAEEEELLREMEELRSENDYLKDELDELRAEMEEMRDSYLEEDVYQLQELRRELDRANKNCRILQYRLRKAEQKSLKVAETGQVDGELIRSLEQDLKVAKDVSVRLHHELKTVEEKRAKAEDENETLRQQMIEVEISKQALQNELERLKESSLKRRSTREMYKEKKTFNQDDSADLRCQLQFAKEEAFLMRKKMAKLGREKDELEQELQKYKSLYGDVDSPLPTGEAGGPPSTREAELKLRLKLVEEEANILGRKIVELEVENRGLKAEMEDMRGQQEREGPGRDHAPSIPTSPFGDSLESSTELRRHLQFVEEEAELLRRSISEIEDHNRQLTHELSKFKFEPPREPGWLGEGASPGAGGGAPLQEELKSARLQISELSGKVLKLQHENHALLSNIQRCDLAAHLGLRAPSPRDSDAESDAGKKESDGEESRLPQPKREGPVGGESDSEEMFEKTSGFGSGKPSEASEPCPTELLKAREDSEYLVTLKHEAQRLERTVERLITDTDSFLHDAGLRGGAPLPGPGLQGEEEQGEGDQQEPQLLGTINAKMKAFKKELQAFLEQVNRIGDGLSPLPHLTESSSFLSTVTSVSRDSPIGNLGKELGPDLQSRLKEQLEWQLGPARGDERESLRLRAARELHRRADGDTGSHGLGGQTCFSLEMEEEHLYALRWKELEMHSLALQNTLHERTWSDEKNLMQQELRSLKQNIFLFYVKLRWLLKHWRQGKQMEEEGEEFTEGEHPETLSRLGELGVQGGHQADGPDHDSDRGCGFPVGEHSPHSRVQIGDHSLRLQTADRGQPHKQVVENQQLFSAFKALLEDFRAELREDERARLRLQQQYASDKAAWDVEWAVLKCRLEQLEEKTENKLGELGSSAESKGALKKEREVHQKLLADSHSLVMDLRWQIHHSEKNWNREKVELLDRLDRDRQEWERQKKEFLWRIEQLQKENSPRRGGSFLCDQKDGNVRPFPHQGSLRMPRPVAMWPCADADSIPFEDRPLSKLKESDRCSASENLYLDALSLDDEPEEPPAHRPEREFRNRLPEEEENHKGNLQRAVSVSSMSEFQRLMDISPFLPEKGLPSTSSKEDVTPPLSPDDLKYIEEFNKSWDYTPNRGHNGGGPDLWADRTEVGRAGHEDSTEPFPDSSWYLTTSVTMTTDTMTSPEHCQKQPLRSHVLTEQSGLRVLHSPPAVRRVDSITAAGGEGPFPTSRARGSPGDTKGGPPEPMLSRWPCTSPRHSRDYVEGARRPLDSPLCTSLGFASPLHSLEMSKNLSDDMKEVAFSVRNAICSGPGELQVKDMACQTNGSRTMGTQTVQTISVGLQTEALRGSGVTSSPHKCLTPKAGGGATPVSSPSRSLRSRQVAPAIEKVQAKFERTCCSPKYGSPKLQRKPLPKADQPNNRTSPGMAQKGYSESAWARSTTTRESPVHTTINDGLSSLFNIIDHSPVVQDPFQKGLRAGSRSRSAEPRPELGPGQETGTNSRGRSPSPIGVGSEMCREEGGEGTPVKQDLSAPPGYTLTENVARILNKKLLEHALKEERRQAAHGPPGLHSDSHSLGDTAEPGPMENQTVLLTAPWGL
UniProt Q96QG7: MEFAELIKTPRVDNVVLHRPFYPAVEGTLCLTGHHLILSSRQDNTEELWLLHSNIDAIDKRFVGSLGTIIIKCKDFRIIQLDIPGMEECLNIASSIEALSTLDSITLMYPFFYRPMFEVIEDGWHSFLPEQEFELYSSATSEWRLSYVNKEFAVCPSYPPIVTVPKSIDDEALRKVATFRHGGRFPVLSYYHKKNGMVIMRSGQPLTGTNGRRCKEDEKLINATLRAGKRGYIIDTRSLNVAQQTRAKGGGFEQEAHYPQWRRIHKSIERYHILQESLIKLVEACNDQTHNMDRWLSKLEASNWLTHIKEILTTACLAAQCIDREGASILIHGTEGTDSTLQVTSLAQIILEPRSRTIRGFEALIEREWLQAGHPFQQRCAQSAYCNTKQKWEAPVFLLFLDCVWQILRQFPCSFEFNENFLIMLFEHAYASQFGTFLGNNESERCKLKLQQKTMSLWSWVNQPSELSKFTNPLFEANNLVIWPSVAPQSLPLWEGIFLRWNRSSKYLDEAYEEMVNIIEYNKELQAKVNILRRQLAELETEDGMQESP
UniProt P52701: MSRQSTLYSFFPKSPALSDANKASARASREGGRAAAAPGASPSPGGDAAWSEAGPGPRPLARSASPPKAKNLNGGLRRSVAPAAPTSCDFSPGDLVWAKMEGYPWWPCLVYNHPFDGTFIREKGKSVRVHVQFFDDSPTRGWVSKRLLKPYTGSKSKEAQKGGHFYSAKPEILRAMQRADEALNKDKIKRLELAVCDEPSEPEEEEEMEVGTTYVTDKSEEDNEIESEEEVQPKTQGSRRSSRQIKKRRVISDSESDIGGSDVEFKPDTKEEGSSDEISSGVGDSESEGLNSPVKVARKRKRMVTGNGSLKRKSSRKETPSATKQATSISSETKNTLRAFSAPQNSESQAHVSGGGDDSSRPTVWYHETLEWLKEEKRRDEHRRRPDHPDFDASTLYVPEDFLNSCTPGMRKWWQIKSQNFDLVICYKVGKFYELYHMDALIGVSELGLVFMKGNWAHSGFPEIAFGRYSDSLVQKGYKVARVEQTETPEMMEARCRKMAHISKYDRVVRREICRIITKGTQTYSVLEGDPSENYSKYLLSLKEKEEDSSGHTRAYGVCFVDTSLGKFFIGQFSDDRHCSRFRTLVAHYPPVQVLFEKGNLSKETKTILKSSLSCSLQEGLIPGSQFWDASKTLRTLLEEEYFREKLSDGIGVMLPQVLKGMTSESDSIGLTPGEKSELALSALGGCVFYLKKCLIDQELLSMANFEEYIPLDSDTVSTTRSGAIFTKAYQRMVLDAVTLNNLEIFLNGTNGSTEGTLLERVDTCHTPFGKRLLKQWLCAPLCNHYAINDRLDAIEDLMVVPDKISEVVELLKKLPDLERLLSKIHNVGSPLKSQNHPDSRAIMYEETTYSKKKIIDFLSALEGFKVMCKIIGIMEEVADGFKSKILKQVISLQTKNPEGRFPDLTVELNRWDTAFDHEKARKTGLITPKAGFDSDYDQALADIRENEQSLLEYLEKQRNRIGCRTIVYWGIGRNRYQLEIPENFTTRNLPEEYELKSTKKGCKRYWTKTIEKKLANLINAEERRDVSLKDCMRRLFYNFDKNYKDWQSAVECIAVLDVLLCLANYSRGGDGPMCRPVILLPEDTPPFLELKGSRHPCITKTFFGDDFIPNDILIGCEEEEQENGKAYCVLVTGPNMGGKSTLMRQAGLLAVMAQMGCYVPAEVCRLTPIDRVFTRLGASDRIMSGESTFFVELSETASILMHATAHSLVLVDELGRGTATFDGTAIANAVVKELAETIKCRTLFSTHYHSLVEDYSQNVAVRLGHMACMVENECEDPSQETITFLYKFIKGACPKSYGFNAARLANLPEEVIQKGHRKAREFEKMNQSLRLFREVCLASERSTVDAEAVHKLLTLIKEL
UniProt Q9UDX5: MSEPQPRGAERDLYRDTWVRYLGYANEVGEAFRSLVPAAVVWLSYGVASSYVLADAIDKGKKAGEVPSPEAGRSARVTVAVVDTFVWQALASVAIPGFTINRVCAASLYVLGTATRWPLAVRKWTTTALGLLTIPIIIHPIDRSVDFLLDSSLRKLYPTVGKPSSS
UniProt Q9BUK6: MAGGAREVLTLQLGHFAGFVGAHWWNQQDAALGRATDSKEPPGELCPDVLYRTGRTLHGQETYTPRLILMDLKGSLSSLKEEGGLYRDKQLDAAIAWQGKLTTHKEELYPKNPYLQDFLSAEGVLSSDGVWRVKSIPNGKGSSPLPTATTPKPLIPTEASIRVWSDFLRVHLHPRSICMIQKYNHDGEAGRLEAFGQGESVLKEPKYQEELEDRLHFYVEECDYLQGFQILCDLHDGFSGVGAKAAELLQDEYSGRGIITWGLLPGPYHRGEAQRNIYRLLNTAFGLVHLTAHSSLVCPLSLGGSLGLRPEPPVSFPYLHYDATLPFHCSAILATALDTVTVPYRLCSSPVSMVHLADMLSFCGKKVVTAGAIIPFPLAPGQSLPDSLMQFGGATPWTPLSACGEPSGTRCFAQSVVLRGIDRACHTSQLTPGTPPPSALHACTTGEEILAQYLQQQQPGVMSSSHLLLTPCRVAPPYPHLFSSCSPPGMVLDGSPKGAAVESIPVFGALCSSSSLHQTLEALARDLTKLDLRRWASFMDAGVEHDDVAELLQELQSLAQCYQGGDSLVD
UniProt Q9Y217: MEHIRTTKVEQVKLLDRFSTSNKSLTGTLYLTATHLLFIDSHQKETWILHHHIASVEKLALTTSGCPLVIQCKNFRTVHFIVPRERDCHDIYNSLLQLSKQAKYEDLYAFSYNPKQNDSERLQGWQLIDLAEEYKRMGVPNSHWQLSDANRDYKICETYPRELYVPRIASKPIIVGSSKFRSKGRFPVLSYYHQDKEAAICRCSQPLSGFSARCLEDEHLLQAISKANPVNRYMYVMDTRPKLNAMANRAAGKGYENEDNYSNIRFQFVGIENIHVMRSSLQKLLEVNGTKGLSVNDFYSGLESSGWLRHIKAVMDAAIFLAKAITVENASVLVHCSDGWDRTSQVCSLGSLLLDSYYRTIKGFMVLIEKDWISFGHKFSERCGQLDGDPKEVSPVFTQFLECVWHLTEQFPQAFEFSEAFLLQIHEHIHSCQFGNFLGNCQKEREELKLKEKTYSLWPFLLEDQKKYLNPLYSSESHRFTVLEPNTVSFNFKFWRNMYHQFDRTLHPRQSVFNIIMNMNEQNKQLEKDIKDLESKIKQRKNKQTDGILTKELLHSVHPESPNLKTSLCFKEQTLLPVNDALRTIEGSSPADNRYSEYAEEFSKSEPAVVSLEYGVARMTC
UniProt P03891, whole entry, looked up: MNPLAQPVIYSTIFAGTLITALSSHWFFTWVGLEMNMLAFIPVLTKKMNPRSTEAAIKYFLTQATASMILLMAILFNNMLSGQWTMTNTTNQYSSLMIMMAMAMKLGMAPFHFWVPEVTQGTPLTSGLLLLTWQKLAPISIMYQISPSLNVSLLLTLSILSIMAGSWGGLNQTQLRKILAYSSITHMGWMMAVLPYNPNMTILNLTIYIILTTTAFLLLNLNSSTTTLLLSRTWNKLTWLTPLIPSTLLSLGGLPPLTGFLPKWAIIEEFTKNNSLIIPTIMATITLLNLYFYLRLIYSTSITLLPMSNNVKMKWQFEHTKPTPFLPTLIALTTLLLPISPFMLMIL
UniProt Q9Y3D2: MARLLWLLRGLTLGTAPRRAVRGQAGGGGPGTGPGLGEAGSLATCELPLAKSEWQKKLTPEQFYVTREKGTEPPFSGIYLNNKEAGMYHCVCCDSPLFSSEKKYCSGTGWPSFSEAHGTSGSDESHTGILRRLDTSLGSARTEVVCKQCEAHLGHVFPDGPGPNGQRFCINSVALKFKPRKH
UniProt P03928: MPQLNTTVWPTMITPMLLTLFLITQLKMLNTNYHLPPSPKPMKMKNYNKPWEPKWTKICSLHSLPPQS

[1] = compound: C/C(=N\NC(=O)C1=CC(=CC=C1)S(=O)(=O)N2CCOCC2)/C3=C(C=CC(=C3)Cl)O
Method in brief: as §1

[2] = compound: C1=CC(=CC=C1C2=NC3=C(N2)C=C(C=C3)C(=O)N)OC4=CC=C(C=C4)Cl
Method in brief: as §1

[3] = compound: C1=CC2=C(C=CC(=C2)/C=C\3/C(=O)NC(=NCC4=CC=CS4)S3)N=C1
Method in brief: as §1

[4] = compound: C1=CC2=NC=CN=C2C=C1/C=C/3\C(=O)NC(=O)S3
Method in brief: as §1

[5] = compound: C1=CC=C(C=C1)C2=NC(=C(N2)C3=CC=NC=C3)C4=CC(=C(C=C4)Cl)O
Method in brief: as §1

[6] = compound: C1=CC=C2C(=C1)C3=NNC4=CC=CC(=C43)C2=O
Method in brief: as §1

[7] = compound: C1CCN(C1)C(=O)NC2=CC=CC(=C2)NC3=NC=C(C(=N3)NCCC4=CN=CN4)Br
Method in brief: as §1

[8] = compound: C1CN(CCC1(CC2=CC=C(C=C2)Cl)N)C3=NC=NC4=C3C=CN4
Method in brief: as §1

IRAK-1-4 Inhibitor I = compound: C1COCCN1CCN2C3=CC=CC=C3N=C2NC(=O)C4=CC(=CC=C4)[N+](=O)[O-] [IRAK-1-4 Inhibitor I]
Method in brief: as §1

ibrutinib = compound: C=CC(=O)N1CCC[C@@H](n2nc(-c3ccc(Oc4ccccc4)cc3)c3c(N)ncnc32)C1 [ibrutinib]
Method in brief: as §1

[9] = compound: CC(=O)c1cnc2ccc(-c3cc(Cl)c(O)c(Cl)c3)nc2c1N[C@H]1CC[C@H](CN(C)C)CC1
Method in brief: as §1

ralimetinib = compound: CC(C)(C)Cn1c(N)nc2ccc(-c3[nH]c(C(C)(C)C)nc3-c3ccc(F)cc3)nc21 [ralimetinib]
Method in brief: as §1

[10] = compound: CC(C)(O)CC(=O)NCCn1ccc2ncnc(Nc3ccc(Oc4cccc(C(F)(F)F)c4)c(Cl)c3)c21
Method in brief: as §1

[11] = compound: CC(C)C1=C2N=C(C=C(N2N=C1)NCC3=CC=CC=C3)NCCCCCCN
Method in brief: as §1

[12] = compound: CC1=C(C(CC(=O)N1)C2=CC=C(C=C2)C(F)(F)F)C(=O)NC3=C(C=C4C(=C3)C=NN4)F
Method in brief: as §1

[13] = compound: CC1=C(C2=C(C=C1)C(=O)C3=CC=CC=C3N2CCCN)C
Method in brief: as §1

[14] = compound: CC1=C(C=C(C=C1)NC(=O)C2=CC(=CC=C2)C(C)(C)C#N)NC3=CC4=C(C=C3)N=CN(C4=O)C
Method in brief: as §1

[15] = compound: CC1=C(C=C(C=C1)NC(=O)C2=CC(=CC=C2)N(C)C)NC(=O)C3=CC=C(C=C3)O
Method in brief: as §1

[16] = compound: CC1=CC=C(C=C1)SC2=C3C=C(SC3=CN=C2)C(=O)N
Method in brief: as §1

Measured: log2 fold change

MRPS12 (UniProt O15235)
inactive: erlotinib -0.015 | [1] -0.058 | [2] 0 | [3] -0.044 | [4] -0.016 | [5] 0.019 | [6] -0.251 | [7] -0.004 | [8] -0.127 | IRAK-1-4 Inhibitor I 0.043 | ibrutinib -0.003 | [9] -0.008 | ralimetinib 0.011 | [10] -0.067 | [11] 0.007 | [12] -0.004 | [13] -0.138 | [14] 0.003 | [15] -0.028 | [16] -0.02

MTCL1 (UniProt Q9Y4B5)
inactive: erlotinib 0.034 | [1] -0.03 | [2] 0.033 | [3] 0.063 | [4] -0.039 | [5] 0.079 | [6] -0.099 | [7] -0.078 | [8] 0.017 | IRAK-1-4 Inhibitor I 0.035 | ibrutinib -0.112 | [9] -0.047 | ralimetinib -0.171 | [10] -0.192 | [11] 0.032 | [13] -0.045 | [14] -0.002 | [15] 0.019 | [16] -0.008

MRPL55 isoform 2 (UniProt Q7Z7F7)
inactive: erlotinib 0.007 | [1] -0.364 | [2] 0.009 | [3] 0.008 | [4] -0.085 | [5] -0.021 | [6] 0.031 | [7] -0.07 | [8] 0.038 | IRAK-1-4 Inhibitor I 0.037 | ibrutinib 0.081 | [9] 0.007 | ralimetinib 0.009 | [10] 0.016 | [11] -0.035 | [12] -0.048 | [13] -0.034 | [14] 0.049 | [15] -0.046 | [16] -0.006

MTMR9 (UniProt Q96QG7)
inactive: erlotinib -0.033 | [1] 0.064 | [2] 0.002 | [3] 0.078 | [4] 0.042 | [5] 0.042 | [6] -0.05 | [7] -0.02 | [8] 0.06 | IRAK-1-4 Inhibitor I 0.034 | ibrutinib 0.014 | [9] 0.003 | ralimetinib -0.013 | [10] -0.021 | [11] 0.067 | [12] 0.187 | [13] -0.017 | [14] -0.038 | [15] -0.001 | [16] 0.027

MTHFD1L (UniProt B7ZM99)
inactive: erlotinib 0.026 | [1] -0.001 | [2] 0 | [3] -0.007 | [4] 0.033 | [5] -0.006 | [6] -0.057 | [7] -0.004 | [8] 0.002 | IRAK-1-4 Inhibitor I -0.013 | ibrutinib -0.034 | [9] -0.014 | ralimetinib 0.004 | [10] 0.011 | [11] -0.007 | [12] -0.005 | [13] -0.006 | [14] 0.033 | [15] 0.02 | [16] -0.023

MRPL33 (UniProt O75394)
inactive: erlotinib 0.063 | [1] -0.362 | [2] -0.033 | [3] 0.184 | [4] -0.072 | [5] 0.105 | [6] -0.016 | [7] -0.077 | [8] 0.213 | IRAK-1-4 Inhibitor I -0.087 | ibrutinib -0.006 | [9] 0.018 | ralimetinib 0.03 | [10] -0.183 | [11] -0.022 | [12] -0.204 | [13] 0.01 | [14] -0.056 | [15] -0.128 | [16] 0.002

MSH6 (UniProt P52701)
inactive: erlotinib 0.011 | [1] 0.03 | [2] -0.023 | [3] 0.031 | [4] 0.041 | [5] 0.008 | [6] -0.025 | [7] 0 | [8] -0.014 | IRAK-1-4 Inhibitor I -0.008 | ibrutinib 0.001 | [9] 0.022 | ralimetinib 0.024 | [10] 0.003 | [11] 0.027 | [12] -0.01 | [13] -0.01 | [14] -0.002 | [15] 0.057 | [16] 0.003

MRPL37 (UniProt Q9BZE1)
inactive: erlotinib 0 | [1] 0.002 | [2] -0.002 | [3] 0.046 | [4] 0.03 | [5] -0.014 | [6] 0.004 | [7] 0 | [8] -0.012 | IRAK-1-4 Inhibitor I 0.036 | ibrutinib 0.062 | [9] -0.027 | ralimetinib -0.014 | [10] -0.003 | [11] 0.026 | [12] -0.002 | [13] -0.011 | [14] 0.068 | [15] 0.034 | [16] 0.018

Looked up one by one from the entries so far, two records:
MRPS12 (UniProt O15235)
inactive: erlotinib -0.015 | [1] -0.058 | [2] 0 | [3] -0.044 | [4] -0.016 | [5] 0.019 | [6] -0.251 | [7] -0.004 | [8] -0.127 | IRAK-1-4 Inhibitor I 0.043 | ibrutinib -0.003 | [9] -0.008 | ralimetinib 0.011 | [10] -0.067 | [11] 0.007 | [12] -0.004 | [13] -0.138 | [14] 0.003 | [15] -0.028 | [16] -0.02

MTHFD1L (UniProt B7ZM99)
inactive: erlotinib 0.026 | [1] -0.001 | [2] 0 | [3] -0.007 | [4] 0.033 | [5] -0.006 | [6] -0.057 | [7] -0.004 | [8] 0.002 | IRAK-1-4 Inhibitor I -0.013 | ibrutinib -0.034 | [9] -0.014 | ralimetinib 0.004 | [10] 0.011 | [11] -0.007 | [12] -0.005 | [13] -0.006 | [14] 0.033 | [15] 0.02 | [16] -0.023

Later entries:

MRPS9 (UniProt P82933)
inactive: erlotinib 0.002 | [1] 0.009 | [2] 0.092 | [3] 0.015 | [4] 0.002 | [5] -0.025 | [6] -0.047 | [7] -0.044 | [8] 0.075 | IRAK-1-4 Inhibitor I -0.002 | ibrutinib 0.041 | [9] -0.03 | ralimetinib -0.01 | [10] 0.015 | [11] 0.042 | [12] 0.009 | [13] -0.062 | [14] -0.007 | [15] 0.039 | [16] 0.034

MRPS5 (UniProt P82675)
inactive: erlotinib -0.019 | [1] 0.045 | [2] 0.016 | [3] -0.036 | [4] -0.051 | [5] -0.032 | [6] -0.005 | [7] 0.087 | [8] 0.038 | IRAK-1-4 Inhibitor I -0.037 | ibrutinib -0.008 | [9] -0.055 | ralimetinib -0.008 | [10] 0.039 | [11] -0.001 | [12] -0.009 | [13] -0.155 | [14] 0.029 | [15] -0.001 | [16] -0.01

MTFP1 (UniProt Q9UDX5)
inactive: erlotinib -0.006 | [1] 0.092 | [2] 0.035 | [3] 0.041 | [4] -0.043 | [5] -0.003 | [6] 0.081 | [7] -0.044 | [8] 0.044 | IRAK-1-4 Inhibitor I -0.058 | ibrutinib 0.097 | [9] -0.065 | ralimetinib -0.017 | [10] 0.079 | [11] -0.058 | [12] 0.018 | [13] 0.009 | [14] -0.011 | [15] -0.048 | [16] -0.001

MSTO1 (UniProt Q9BUK6)
inactive: erlotinib 0.035 | [1] 0.027 | [2] 0.066 | [3] 0 | [4] -0.001 | [5] -0.015 | [6] 0.007 | [7] -0.027 | [8] -0.001 | IRAK-1-4 Inhibitor I 0.003 | ibrutinib 0.018 | [9] 0.065 | ralimetinib 0.049 | [10] 0.018 | [11] -0.117 | [12] 0.014 | [13] 0.018 | [14] -0.01 | [15] 0.028 | [16] 0.02

MTMR6 (UniProt Q9Y217)
inactive: erlotinib 0.01 | [1] 0.044 | [2] 0.002 | [3] -0.008 | [4] -0.004 | [5] -0.009 | [6] -0.052 | [7] -0.013 | [8] 0.015 | IRAK-1-4 Inhibitor I -0.013 | ibrutinib 0.011 | [9] -0.02 | ralimetinib 0.041 | [10] 0.026 | [11] 0.043 | [12] -0.044 | [13] 0.006 | [14] 0.121 | [15] 0.011 | [16] -0.006

MT-ND2 (UniProt P03891)
inactive: erlotinib -0.025 | [1] 0.075 | [2] -0.154 | [3] -0.04 | [4] 0.02 | [5] -0.006 | [6] -0.035 | [7] 0.002 | [8] 0.02 | IRAK-1-4 Inhibitor I -0.028 | ibrutinib -0.014 | [9] 0.061 | ralimetinib 0.035 | [10] -0.034 | [11] 0.026 | [12] -0.004 | [13] 0 | [14] -0.106 | [15] -0.078 | [16] 0.151

MSRB2 (UniProt Q9Y3D2)
inactive: erlotinib 0.01 | [1] 0.106 | [2] -0.041 | [3] 0.084 | [4] 0.019 | [5] 0.069 | [6] 0.07 | [7] -0.084 | [8] 0.046 | IRAK-1-4 Inhibitor I 0.015 | ibrutinib 0.067 | [9] 0.078 | ralimetinib -0.007 | [10] 0.002 | [11] 0.002 | [12] 0.057 | [13] -0.035 | [14] 0.007 | [15] 0.013 | [16] -0.042

MT-ATP8 (UniProt P03928)
inactive: erlotinib 0.069 | [1] 0.006 | [2] -0.006 | [3] -0.041 | [4] 0.103 | [5] -0.103 | [6] -0.062 | [7] 0.116 | [8] 0.068 | IRAK-1-4 Inhibitor I 0.033 | ibrutinib -0.035 | [9] -0.052 | ralimetinib 0.005 | [10] -0.109 | [11] -0.087 | [12] -0.082 | [14] 0.153 | [15] 0.047 | [16] 0.104
